Assay results taken from the supplement of paper PMC10849652.
Some of the results follow.

Sequences of proteins named here, by UniProt entry; tags and fusion partners are left off. A change or cut given only in a name is not applied to a line headed by its entry.
UniProt Q6P5S2: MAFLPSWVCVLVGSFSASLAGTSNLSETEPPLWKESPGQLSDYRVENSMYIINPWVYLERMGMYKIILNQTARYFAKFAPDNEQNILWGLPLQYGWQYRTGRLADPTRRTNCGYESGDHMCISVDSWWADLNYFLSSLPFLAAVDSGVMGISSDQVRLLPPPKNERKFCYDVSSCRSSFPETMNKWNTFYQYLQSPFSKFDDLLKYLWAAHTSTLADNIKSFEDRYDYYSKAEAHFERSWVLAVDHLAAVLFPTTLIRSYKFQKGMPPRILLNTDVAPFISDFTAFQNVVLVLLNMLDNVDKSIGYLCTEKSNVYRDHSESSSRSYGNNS
UniProt Q5T3J3: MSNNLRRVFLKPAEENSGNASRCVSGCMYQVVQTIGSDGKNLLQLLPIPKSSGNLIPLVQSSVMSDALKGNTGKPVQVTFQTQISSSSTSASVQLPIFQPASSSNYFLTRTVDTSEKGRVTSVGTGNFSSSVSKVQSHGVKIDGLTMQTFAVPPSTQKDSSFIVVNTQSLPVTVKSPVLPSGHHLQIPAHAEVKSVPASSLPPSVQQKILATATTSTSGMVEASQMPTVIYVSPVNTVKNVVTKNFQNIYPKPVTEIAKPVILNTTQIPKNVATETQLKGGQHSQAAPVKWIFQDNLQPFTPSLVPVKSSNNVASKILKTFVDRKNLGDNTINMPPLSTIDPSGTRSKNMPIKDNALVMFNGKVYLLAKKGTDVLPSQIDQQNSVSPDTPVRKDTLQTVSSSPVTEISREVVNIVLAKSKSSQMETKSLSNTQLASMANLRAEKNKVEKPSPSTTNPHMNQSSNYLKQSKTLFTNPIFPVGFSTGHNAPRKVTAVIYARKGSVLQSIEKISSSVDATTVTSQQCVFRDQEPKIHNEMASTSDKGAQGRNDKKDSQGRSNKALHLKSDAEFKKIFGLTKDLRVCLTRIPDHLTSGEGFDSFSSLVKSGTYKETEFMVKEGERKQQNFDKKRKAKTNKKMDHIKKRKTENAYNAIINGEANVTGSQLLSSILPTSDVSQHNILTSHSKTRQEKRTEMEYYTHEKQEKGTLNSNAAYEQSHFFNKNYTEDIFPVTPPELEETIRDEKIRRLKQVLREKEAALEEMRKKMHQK
UniProt Q9H9Z2: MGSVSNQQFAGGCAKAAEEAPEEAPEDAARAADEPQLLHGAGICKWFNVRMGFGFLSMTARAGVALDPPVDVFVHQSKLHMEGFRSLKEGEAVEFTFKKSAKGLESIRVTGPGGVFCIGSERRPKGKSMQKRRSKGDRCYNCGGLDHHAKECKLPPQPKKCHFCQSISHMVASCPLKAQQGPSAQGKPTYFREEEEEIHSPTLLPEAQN
UniProt Q6ZN17: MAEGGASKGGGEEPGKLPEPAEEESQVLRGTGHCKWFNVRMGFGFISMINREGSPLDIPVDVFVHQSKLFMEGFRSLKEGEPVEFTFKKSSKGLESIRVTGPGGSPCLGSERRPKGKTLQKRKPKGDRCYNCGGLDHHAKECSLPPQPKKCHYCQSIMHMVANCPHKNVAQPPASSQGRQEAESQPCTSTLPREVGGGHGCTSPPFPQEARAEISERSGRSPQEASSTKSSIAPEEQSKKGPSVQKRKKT
UniProt P80188: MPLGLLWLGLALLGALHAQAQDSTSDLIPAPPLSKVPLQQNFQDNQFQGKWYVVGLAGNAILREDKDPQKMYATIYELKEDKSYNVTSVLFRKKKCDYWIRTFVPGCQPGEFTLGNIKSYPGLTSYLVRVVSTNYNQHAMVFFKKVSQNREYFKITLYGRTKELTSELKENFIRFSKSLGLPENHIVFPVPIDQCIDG
UniProt Q9Y546: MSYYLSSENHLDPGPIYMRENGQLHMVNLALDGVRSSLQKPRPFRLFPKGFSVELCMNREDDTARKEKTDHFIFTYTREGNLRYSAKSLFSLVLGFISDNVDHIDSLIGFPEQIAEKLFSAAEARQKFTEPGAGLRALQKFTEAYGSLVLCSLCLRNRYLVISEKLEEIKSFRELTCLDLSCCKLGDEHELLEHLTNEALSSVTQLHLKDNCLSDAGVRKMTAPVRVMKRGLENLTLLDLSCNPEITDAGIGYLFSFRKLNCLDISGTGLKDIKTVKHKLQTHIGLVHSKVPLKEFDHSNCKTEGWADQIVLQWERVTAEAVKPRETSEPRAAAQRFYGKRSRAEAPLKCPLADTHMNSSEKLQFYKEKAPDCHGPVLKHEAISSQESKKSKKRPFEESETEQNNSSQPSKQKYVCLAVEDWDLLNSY
UniProt Q9C099: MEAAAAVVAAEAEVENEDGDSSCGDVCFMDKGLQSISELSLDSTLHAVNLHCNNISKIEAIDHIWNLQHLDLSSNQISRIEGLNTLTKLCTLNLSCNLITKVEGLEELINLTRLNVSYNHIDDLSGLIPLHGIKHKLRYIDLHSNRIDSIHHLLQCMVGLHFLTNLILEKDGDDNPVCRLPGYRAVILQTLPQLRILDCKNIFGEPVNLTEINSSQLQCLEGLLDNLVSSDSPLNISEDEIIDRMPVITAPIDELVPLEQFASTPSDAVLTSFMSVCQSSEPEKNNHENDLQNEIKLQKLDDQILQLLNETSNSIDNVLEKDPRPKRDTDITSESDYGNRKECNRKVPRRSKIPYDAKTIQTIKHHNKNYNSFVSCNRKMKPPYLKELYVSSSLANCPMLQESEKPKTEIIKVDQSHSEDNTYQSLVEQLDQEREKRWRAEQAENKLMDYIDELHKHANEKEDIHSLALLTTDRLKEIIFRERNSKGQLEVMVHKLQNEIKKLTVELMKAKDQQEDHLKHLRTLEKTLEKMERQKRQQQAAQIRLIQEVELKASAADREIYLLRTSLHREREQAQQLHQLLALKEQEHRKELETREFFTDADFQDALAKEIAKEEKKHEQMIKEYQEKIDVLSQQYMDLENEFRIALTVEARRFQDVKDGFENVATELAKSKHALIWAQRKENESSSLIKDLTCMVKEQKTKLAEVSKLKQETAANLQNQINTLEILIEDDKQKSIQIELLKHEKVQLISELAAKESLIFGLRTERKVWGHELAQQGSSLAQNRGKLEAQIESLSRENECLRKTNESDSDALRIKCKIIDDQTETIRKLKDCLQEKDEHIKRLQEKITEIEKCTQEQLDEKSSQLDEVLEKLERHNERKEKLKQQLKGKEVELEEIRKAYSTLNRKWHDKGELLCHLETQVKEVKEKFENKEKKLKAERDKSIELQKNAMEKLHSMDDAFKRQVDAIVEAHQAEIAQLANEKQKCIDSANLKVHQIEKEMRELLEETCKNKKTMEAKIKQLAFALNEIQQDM
UniProt Q8N448: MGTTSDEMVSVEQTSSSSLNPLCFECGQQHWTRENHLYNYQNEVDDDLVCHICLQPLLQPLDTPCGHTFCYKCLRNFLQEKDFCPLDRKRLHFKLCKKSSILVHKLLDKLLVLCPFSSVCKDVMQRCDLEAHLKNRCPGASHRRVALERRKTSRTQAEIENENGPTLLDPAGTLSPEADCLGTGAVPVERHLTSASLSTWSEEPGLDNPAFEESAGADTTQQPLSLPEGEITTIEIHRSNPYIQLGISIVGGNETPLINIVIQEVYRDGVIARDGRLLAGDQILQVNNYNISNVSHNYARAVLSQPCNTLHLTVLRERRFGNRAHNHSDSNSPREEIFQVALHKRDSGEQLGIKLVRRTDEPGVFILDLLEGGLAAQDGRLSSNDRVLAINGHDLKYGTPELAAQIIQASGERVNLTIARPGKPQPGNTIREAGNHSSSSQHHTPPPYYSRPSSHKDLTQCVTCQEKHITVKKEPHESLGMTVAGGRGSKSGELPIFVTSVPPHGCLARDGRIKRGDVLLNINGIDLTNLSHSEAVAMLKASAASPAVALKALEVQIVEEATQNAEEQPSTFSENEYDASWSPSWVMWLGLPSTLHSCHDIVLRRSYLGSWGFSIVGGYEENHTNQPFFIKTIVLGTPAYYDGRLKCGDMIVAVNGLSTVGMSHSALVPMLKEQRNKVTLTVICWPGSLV
UniProt Q9P244: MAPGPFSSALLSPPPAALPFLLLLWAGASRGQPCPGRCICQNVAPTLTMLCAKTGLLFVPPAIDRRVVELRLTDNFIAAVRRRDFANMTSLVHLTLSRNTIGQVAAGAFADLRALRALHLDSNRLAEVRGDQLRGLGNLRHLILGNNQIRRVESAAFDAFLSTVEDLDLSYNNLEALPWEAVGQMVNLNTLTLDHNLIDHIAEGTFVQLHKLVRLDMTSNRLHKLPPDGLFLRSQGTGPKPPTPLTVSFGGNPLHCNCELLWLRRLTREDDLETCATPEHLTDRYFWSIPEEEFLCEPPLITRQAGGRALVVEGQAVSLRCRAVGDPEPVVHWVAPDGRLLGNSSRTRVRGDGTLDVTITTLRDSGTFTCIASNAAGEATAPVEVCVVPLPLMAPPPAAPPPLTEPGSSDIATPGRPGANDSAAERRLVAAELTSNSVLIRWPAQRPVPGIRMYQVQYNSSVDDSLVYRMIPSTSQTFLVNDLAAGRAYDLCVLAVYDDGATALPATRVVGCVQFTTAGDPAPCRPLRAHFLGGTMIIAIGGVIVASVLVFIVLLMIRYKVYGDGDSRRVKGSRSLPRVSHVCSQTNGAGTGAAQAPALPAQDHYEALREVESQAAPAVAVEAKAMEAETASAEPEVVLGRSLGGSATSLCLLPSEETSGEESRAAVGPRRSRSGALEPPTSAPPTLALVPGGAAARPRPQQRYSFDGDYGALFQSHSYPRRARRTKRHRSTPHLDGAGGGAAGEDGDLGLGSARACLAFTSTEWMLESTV
UniProt Q8IWT6: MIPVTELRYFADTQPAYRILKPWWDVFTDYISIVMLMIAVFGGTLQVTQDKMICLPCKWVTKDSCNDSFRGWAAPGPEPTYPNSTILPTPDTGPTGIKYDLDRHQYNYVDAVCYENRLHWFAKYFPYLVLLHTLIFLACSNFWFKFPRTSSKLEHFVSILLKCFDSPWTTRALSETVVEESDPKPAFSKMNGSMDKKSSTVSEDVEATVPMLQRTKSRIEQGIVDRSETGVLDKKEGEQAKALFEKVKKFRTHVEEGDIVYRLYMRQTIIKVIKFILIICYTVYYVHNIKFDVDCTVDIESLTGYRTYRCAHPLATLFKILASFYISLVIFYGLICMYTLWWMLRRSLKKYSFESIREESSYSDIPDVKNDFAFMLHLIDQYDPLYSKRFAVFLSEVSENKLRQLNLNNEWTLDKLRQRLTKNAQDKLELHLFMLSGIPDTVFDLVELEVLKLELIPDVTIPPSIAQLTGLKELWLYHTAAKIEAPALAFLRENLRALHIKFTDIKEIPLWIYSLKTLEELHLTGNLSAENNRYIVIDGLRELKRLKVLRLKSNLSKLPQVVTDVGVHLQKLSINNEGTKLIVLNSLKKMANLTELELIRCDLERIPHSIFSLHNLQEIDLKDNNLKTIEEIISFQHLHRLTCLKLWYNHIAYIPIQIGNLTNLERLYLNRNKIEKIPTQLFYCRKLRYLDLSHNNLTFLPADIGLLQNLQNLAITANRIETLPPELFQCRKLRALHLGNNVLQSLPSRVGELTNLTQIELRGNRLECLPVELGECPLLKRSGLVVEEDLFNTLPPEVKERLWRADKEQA
UniProt Q9Y2U8: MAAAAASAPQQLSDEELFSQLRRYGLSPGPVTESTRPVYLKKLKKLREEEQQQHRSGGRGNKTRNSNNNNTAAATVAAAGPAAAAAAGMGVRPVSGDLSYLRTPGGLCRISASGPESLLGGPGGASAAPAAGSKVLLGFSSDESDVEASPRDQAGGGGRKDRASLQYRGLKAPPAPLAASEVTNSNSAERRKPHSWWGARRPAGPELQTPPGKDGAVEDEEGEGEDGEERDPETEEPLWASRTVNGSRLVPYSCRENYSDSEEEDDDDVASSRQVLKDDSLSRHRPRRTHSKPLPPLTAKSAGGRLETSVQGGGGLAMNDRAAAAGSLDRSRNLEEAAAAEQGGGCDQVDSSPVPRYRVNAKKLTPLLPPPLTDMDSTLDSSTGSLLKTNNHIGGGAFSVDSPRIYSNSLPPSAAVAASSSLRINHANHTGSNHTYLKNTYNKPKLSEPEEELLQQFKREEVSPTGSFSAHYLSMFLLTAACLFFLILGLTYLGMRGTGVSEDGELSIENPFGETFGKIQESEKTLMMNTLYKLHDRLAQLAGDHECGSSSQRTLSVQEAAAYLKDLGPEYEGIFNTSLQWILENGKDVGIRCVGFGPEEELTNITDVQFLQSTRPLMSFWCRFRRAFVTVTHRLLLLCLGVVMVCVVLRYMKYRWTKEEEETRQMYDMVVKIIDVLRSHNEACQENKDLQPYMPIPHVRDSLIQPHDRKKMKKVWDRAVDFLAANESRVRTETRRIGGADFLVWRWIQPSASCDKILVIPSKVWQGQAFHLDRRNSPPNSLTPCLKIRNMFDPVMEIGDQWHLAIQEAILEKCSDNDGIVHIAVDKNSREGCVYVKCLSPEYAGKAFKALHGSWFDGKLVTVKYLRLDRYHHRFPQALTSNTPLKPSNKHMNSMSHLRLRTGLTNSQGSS

How the values were obtained:
Experiment in all cases: log2 fold change, soluble protein after heating vs DMSO (PISA); higher = thermal stabilisation; K562 lysate, 10 uM; active = over 0.2 and 3.5 SD of the protein, either way, in both replicates (recomputed)
[1] = compound: Cc1cn(-c2cc(NC(=O)c3ccc(C)c(Nc4nccc(-c5cccnc5)n4)c3)cc(C(F)(F)F)c2)cn1 [nilotinib]
Summary of the method: (§1)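 The values are log-two fold changes in thermal stability compared with solvent controls and come from duplicates. They were obtained by TMTpro 16plex LC-MS/MS, with channel sums equalised, on the supernatant after 21,000xg for 90 min. That supernatant came from crude K562 extract at 1 mg/mL protein treated with 10 μM compound for 30 min, heated for 3 min across 48°C-58°C, pooled and brought to 0.5% NP-40 at 4°C.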

[2] = compound: Cc1nc(Nc2n[nH]c3c2CN(C(=O)N[C@H](CN(C)C)c2ccccc2)C3(C)C)c2sccc2n1
Summary of the method: as §1

[3] = compound: Cc1nc(Nc2ncc(C(=O)Nc3c(C)cccc3Cl)s2)cc(N2CCN(CCO)CC2)n1 [dasatinib]
Summary of the method: as §1

[4] = compound: Cc1ncc(-c2ccnc(Nc3ccc(S(C)(=O)=O)cc3)n2)n1C(C)C
Summary of the method: as §1

[5] = compound: Cn1cc(-c2ccc3c(c2)CCN3C(=O)Cc2cccc(C(F)(F)F)c2)c2c(N)ncnc21
Summary of the method: as §1

[6] = compound: Cn1cc(CNCC2CCN(c3ncc(C(=O)NO)cn3)CC2)c2ccccc21 [quisinostat]
Summary of the method: as §1

[7] = compound: Cn1cncc1[C@@](N)(c1ccc(Cl)cc1)c1ccc2c(c1)c(-c1cccc(Cl)c1)cc(=O)n2C [tipifarnib]
Summary of the method: as §1

[8] = compound: NC(=O)Nc1cc(-c2cccc(F)c2)sc1C(=O)N[C@H]1CCCNC1
Summary of the method: as §1

[9] = compound: NC(=O)c1cnc(N[C@@H]2CCCC[C@@H]2N)nc1Nc1cccc(-n2nccn2)c1
Summary of the method: as §1

[10] = compound: NC1(c2ccc(-c3nc4ccn5c(=O)[nH]nc5c4cc3-c3ccccc3)cc2)CCC1
Summary of the method: as §1

[11] = compound: NCC(=O)Nc1ccc(-n2nc(C(F)(F)F)cc2-c2ccc3c(ccc4ccccc43)c2)cc1
Summary of the method: as §1

[12] = compound: O=C(CCCCCCC(=O)Nc1ccccc1)NO [vorinostat]
Summary of the method: as §1

[13] = compound: O=C(O)c1ccc2c(c1)nc(Nc1cccc(Cl)c1)c1ccncc12 [silmitasertib]
Summary of the method: as §1

[14] = compound: O=C1NC(=O)C(c2cnc3ccccn23)=C1c1cn2c3c(cc(F)cc13)CN(C(=O)N1CCCCC1)CC2
Summary of the method: as §1

[15] = compound: c1cn2cc(-c3ccc4cn[nH]c4c3)nc(Nc3ccc(N4CCOCC4)cc3)c2n1 [entospletinib]
Summary of the method: as §1

Measured: log2 fold change

LMTK2 (UniProt Q8IWU2)
inactive: [1] 0.056 | [2] 0.05 | [3] -0.044 | [4] 0.046 | [5] 0.016 | [6] -0.104 | [7] -0.028 | [8] 0.007 | [9] -0.051 | [10] 0.008 | [11] 0.037 | [12] 0.004 | [13] 0.032 | [14] 0.042 | [15] -0.018

LMF2 (UniProt Q9BU23)
inactive: [1] 0.1 | [2] 0 | [3] -0.062 | [4] -0.11 | [5] -0.093 | [6] 0.037 | [7] -0.099 | [8] -0.001 | [10] -0.054 | [11] 0.008 | [12] 0.108 | [13] -0.053 | [14] -0.086 | [15] 0.025

LNPK (UniProt Q9C0E8)
inactive: [1] -0.002 | [2] 0.063 | [3] 0.006 | [4] -0.057 | [5] 0.035 | [6] -0.033 | [7] -0.053 | [8] 0.012 | [9] 0.009 | [10] 0.035 | [11] -0.003 | [12] 0.141 | [13] -0.033 | [14] -0.008 | [15] -0.016

LEG1 (UniProt Q6P5S2)
inactive: [1] -0.006 | [2] -0.009 | [3] -0.066 | [4] 0.155 | [5] 0.213 | [6] -0.474 | [7] 0.245 | [8] -0.024 | [9] -0.05 | [10] -0.022 | [12] -0.213 | [13] 0.124 | [14] -0.127 | [15] -0.05

LRIF1 (UniProt Q5T3J3)
inactive: [1] -0.147 | [2] 0.086 | [3] 0.047 | [4] 0.022 | [5] -0.011 | [6] 0 | [7] 0.057 | [8] -0.008 | [9] -0.163 | [10] -0.056 | [11] 0.079 | [12] 0.082 | [13] -0.11 | [14] -0.024 | [15] 0.001

LONRF2 (UniProt Q1L5Z9)
inactive: [1] 0.007 | [2] 0.03 | [3] -0.18 | [4] 0 | [5] 0.064 | [6] -0.083 | [7] -0.059 | [8] -0.095 | [10] -0.07 | [12] -0.22 | [13] 0 | [14] 0.077 | [15] -0.193

LONP1 (UniProt P36776)
inactive: [1] 0.025 | [2] 0 | [3] -0.013 | [4] 0 | [5] -0.005 | [6] 0.06 | [7] 0.024 | [8] -0.034 | [9] 0.187 | [10] -0.018 | [11] 0.015 | [12] 0.048 | [13] -0.009 | [14] -0.005 | [15] 0.014

LIN28A (UniProt Q9H9Z2)
inactive: [1] -0.009 | [2] -0.023 | [4] 0.065 | [7] 0.052 | [10] 0.142 | [12] -0.117 | [13] -0.136

LIN28B (UniProt Q6ZN17)
inactive: [1] -0.031 | [2] 0.011 | [3] 0.021 | [4] 0 | [5] 0.015 | [6] 0.012 | [7] 0.017 | [8] 0.023 | [9] -0.006 | [10] -0.006 | [11] -0.005 | [12] 0.006 | [13] -0.03 | [14] -0.027 | [15] 0.036

LCN2 (UniProt P80188)
inactive: [1] 0.227 | [2] -0.074 | [4] 0.358 | [7] -0.405 | [9] 0.22 | [10] 0.288 | [11] -0.127 | [12] 0.35 | [13] -0.272

LRRC42 (UniProt Q9Y546)
inactive: [1] -0.19 | [2] 0.045 | [3] -0.116 | [4] 0.043 | [5] -0.051 | [6] -0.059 | [7] -0.006 | [8] 0.026 | [10] 0.062 | [11] 0.031 | [12] -0.113 | [13] -0.007 | [14] -0.044 | [15] -0.125

LRRCC1 (UniProt Q9C099)
inactive: [1] -0.093 | [2] 0.027 | [3] 0.104 | [4] 0.101 | [5] -0.025 | [6] -0.322 | [7] -0.092 | [8] 0.341 | [9] -0.104 | [10] -0.08 | [11] 0.208 | [12] 0.043 | [13] -0.016 | [14] -0.135 | [15] -0.039

LNX2 (UniProt Q8N448)
inactive: [1] 0.021 | [2] 0.145 | [3] -0.077 | [4] 0.051 | [5] -0.062 | [7] -0.207 | [10] 0.07 | [11] -0.26 | [12] 0.74 | [13] 0.382 | [15] -0.036

LIG3 (UniProt P49916)
active: [12] -0.411
inactive: [1] 0.012 | [2] 0.002 | [3] -0.011 | [4] -0.019 | [5] 0.046 | [6] -0.024 | [7] -0.004 | [8] 0.059 | [9] 0.008 | [10] 0.011 | [11] -0.061 | [13] 0.018 | [14] -0.012 | [15] -0.004

LRFN1 (UniProt Q9P244)
inactive: [1] -0.048 | [2] 0.139 | [3] 0.02 | [4] 0.01 | [5] 0.053 | [6] -0.064 | [7] -0.063 | [8] 0.067 | [9] 0.021 | [10] -0.069 | [11] -0.07 | [12] 0.173 | [13] -0.122 | [14] -0.015 | [15] 0.046

LRRC8A (UniProt Q8IWT6)
inactive: [1] -0.01 | [2] -0.039 | [3] 0.07 | [4] -0.058 | [5] -0.021 | [6] 0.047 | [7] -0.022 | [8] -0.032 | [9] 0.001 | [10] 0.004 | [11] 0.024 | [12] 0.085 | [13] -0.099 | [14] 0.072 | [15] 0.049

LEMD3 (UniProt Q9Y2U8)
inactive: [1] -0.021 | [2] -0.085 | [4] 0.062 | [6] -0.019 | [7] 0.011 | [8] 0.063 | [9] 0.019 | [10] -0.056 | [12] 0.165 | [13] -0.135 | [14] 0.017
